“And” between values parts separate entries of the source, which are not always exact repeats. Equal values may be shown once.
Assay: general procedure: Boc solid-phase peptide synthesis; Boc-Thr(Bzl)-O-PAM resin (0.72 mM/g); symmetric anhydrides; HOBt esters for Arg(Tos), Asn, His(Bom); double coupling
Settings: whole synthesis, several disulfide bridges, sequence written open

NH₂-Glu-Cys-Glu-Ser-Gly-Pro-Cys-Cys-Arg-Asn-Cys-Lys-Phe-Leu-Lys-Glu-Gly-Thr-Ile-Cys-Lys-Arg-Ala-Arg-Gly-Asp-Asp-Met-Asp-Asp-Tyr-Cys-Asn-Gly-Lys-Thr-Cys-Asp-Cys-Pro-Arg-Asn-Pro-His-Lys-Gly-Pro-Ala-Thr-OH
final HPLC purity (analytical RP-HPLC (Vydac C18)): >95% | isolated yield (based on 0.25 mM of starting resin, overall): 4 percent overall yield | difficulty met: additional couplings of Arg⁹ and Arg²² were performed four times and Ile¹⁹ three times | isolated mass (run 1): 72 mg and 54 mg

Source: EP0382538A2 (MERCK & CO. INC., priority 1989, dated 1990)
